According to PMC7880690, “Chemical genetics and proteome-wide site mapping reveal cysteine MARylation by PARP-7 on immune-relevant protein targets” (eLife, 2021):
Results are given in words; binding and its absence hold for the method and conditions named. Binding seen in cells or lysates may run through a third protein. A result given as binding can be weak or reduced; the word gives no strength. Sequences can lack the tags named with a protein.

Target: T1, GFP-WT-PARP-7 (UniProt Q7Z3E1)
T1 sequence: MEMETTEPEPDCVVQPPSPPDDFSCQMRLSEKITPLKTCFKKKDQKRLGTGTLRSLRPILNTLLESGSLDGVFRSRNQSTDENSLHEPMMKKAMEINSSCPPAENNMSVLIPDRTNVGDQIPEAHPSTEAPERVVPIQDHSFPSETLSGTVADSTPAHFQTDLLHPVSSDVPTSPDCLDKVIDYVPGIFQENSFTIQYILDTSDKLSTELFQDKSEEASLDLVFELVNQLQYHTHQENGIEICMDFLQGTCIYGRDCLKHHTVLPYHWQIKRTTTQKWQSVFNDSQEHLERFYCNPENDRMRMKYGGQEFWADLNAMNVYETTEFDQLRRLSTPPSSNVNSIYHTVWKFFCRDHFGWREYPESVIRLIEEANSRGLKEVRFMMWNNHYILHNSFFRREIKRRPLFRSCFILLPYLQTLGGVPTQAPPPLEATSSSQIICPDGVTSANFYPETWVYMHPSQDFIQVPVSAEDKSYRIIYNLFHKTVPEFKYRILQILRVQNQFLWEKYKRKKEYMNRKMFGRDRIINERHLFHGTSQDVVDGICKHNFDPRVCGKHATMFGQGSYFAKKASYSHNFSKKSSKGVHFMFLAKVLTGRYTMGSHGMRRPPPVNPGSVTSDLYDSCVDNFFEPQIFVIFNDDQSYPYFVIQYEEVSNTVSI
Experiment: co-IP; MycX2-PARP-13.2 WT or ZnF domain mutants co-expressed with GFP-PARP-7 or GFP empty vector in HEK 293T cells; GFP-PARP-7 immunoprecipitated with GFP-nanobody magnetic beads (Chromotek); Western blot for ADPr, GFP, Myc, actin

Substance | binding
MycX2-PARP-13.2 CtoA ZnF 1–2 mutant (from UniProt Q7Z2W4-2) | binds
MycX2-PARP-13.2 CtoA ZnF 3–4 mutant (from UniProt Q7Z2W4-2) | binds
